# Data: US6756360B1, “Combination of FBPase inhibitors and insulin sensitizers for the treatment of diabetes” (Metabasis Therapeutics, Inc., priority 1998, dated 2004)
# For at least one compound, name, drawing or mass did not settle the structure.
# Test system: ZDF rat
# Assay: Troglitazone-Compound G combination treatment in the ZDF rat, blood glucose
# Assay type: in vivo
# Conditions: food admixture
smiles,measurement,value
Cc1c(C)c2c(c(C)c1O)CCC(C)(COc1ccc(CC3SC(=O)NC3=O)cc1)O2 (stereo not shown) [Troglitazone],blood glucose lowering in pilot studies,normalize blood glucose levels
